Data published in patent publication US20240183860A1, “Chimeric ABC Transporters and Screening Methods” (Genentech, Inc., priority 2021, published 2024).
Entries after “also recorded” stand apart in the source; their conditions may differ. Not every detail of the peptide structures is certain; ends, links or a residue may be inferred. Bridge positions count the residues as written; N and C are the ends. Square brackets hold non-standard residues; d marks the D form. Peptide text beside a SMILES is read from it. Bip = N[C@@H](Cc1ccc(-c2ccccc2)cc1)C(=O)O; NMeF = CN[C@@H](Cc1ccccc1)C(=O)O; NMeA = CN[C@@H](C)C(=O)O; Sar = CNCC(=O)O

Columns and labels:
[1] = tested on: E. coli CFT073 lptD(imp4213) cells; test: Electron microscopy of inhibitor-exposed cells (membrane phenotype, LPS transport); format: cell-based, Escherichia coli; conditions: for inner membrane elaboration / membrane stacking phenotype: electron micrographs, imp cells treated with inhibitor
Text: In some embodiments, one or more functional assays may be performed to test the effect of molecules identified in a screen on the function of the parental ABC transporter. For example, in some cases, a molecule that binds to the periplasmic, extracellular, and/or luminal face of an ABC transporter acts as an inhibitor of the transporter. For example, if inhibition of an ABC transporter activity is expected to result in loss of cell viability or reduction of cell growth, for example, then a cell viability or growth assay can be conducted to determine if presence of the identified molecule affects these parameters. In some cases, other assays may be conducted to determine the impact of a molecule on the function of the transporter. In some cases, the transport of the transporter's substrate in the presence and absence of the molecule can be tested. […] Lack of LPS transport causes a stacking of inner and outer membranes at the surface of a bacterial cell that is clearly visible by EM. Appropriate functional assays for the ABC transporter in question are known or may be readily developed based on knowledge in the art.
Electron microscopy of E. coli CFT073 lptD(imp4213) or CFT073 lptD(imp4213) msbA-cond-ko cells rescued with pLMG18 plasmids expressing the indicated E. coli MsbA mutants was performed as described previously (Ho et al., 2018). Where the use of macrocycle or small molecule inhibitor of MsbA is indicated, an overnight culture of CFT073 lptD(imp4213) grown in LB was diluted 1:100 in LB and grown into log phase for 2.5 hours at 37° C., then pelleted, washed twice with PBS, and resuspended at OD600=0.1 in LB. 50 μl of a 10 mM stock of the indicated inhibitor was then added to 5 mL of the resuspended CFT073 lptD(imp4213), and cultures were incubated for 3 hour at 37° C. Cells were pelleted, washed, fixed and processed for transmission electron microscopy, as described previously (Ho et al., 2018).

[2] = biological target: Enterobacter cloacae MsbA (EnMsbA); test: MsbA ATPase assay, amphipol-reconstituted homologue; format: biochemical; conditions: FIGS. 13A, 13C
Experimental: (§1) The ATPase activity of MsbA was measured using a Transcreener ADP2 FP Assay (BellBrook Labs). […] The final condition for the reaction was MsbA enzyme, 50 μM ATP in 50 mM Tris pH 7.5, 10 mM MgCl2, 1% glycerol, 0.1% bovine gamma globulin, 1 mM dithiothreitol (DTT), 0.007% Brij-35 and 0.5% dimethylsulfoxide (DMSO). The following concentrations were used for each MsbA variant: 5 nM of EcMsbA, EnMsbA, KpMsbA and 80 nM PaMsbA reconstituted in amphipol, 15 nM EcMsbA and EcMsbA-chim5 in LMNG detergent, 22 nM EcMsbA and 27 nM EcMsbA-12G7 complex in aDDM detergent. The enzyme reaction was incubated for 1 hour at room temperature, then quenched by adding the Transcreener Detection Buffer. The IC50 was determined by fitting the inhibition dose-response curve with a nonlinear four-parameter inhibition model (GraphPad Prism).

[3] = biological target: Klebsiella pneumoniae MsbA (KpMsbA); test: as above; format: biochemical; conditions: FIGS. 13A, 13C
Experimental: as §1

With CC(C)C[C@@H]1NC(=O)[C@H](Cc2c[nH]c3ccccc23)NC(=O)[C@H](Cc2c[nH]c3ccccc23)NC(=O)[C@H](Cc2ccccc2)NC(=O)CSC[C@@H](C(N)=O)NC(=O)[C@H](C(C)C)NC(=O)[C@H](Cc2ccccc2)N(C)C(=O)[C@H](Cc2c[nH]c3ccccc23)NC(=O)[C@H](Cc2c[nH]c3ccccc23)NC(=O)[C@H](CC(=O)O)NC(=O)CN(C)C(=O)[C@H](CC(=O)O)NC(=O)[C@H](CO)NC(=O)[C@H](Cc2c[nH]c3ccccc23)NC1=O [Compound G1119] ({CH2CO}-FWWLWSD[Sar]DWW[NMeF]VC-NH2; thioether N-14) the “inner membrane elaboration / membrane stacking phenotype” value [1] was “stacking of extracellular membranes to an even greater extent than G1118”.
In the case of CC(C)C[C@@H]1NC(=O)CNC(=O)[C@H](Cc2c[nH]c3ccccc23)NC(=O)[C@H](C)N(C)C(=O)[C@H](Cc2c[nH]c3ccccc23)NC(=O)[C@H](CC(C)C)NC(=O)[C@H](Cc2ccc(O)cc2)NC(=O)[C@H](CCCNC(=N)N)NC(=O)[C@H](Cc2ccccc2)NC(=O)CSC[C@@H](C(N)=O)NC(=O)[C@H](CC(N)=O)NC(=O)[C@H](CC(=O)O)NC(=O)[C@H](Cc2c[nH]c3ccccc23)NC(=O)[C@H](C(C)C)NC1=O [Compound G1122] ({CH2CO}-FRYLW[NMeA]WGLVWDNC-NH2; thioether N-14), the “inner membrane elaboration / membrane stacking phenotype” value [1] is reported as “stacking of extracellular membranes to an even greater extent than G1118”.
For CC(C)[C@@H]1NC(=O)[C@H](CCCNC(=N)N)NC(=O)[C@H](Cc2ccccc2)N(C)C(=O)[C@H](Cc2ccc(-c3ccccc3)cc2)NC(=O)[C@H](Cc2ccc(O)cc2)NC(=O)[C@H](C(C)C)NC(=O)[C@H](Cc2ccccc2)NC(=O)CSC[C@@H](C(N)=O)NC1=O [Compound G1365, ClAc-FVYBphMeFRVCNH2] ({CH2CO}-FVY[Bip][NMeF]RVC-NH2; thioether N-8), the “LPS transport activity of E. coli MsbA” value [1] was “inhibit LPS transport activity”, the “inner membrane elaboration / membrane stacking phenotype” value [1] was “mirrored the inner membrane elaboration phenotype; also recorded: revealed the MsbA depletion membrane phenotype” and the IC50 [2] was about 0.7 µM. For the same compound, the IC50 [3] was about 0.66 µM.
